Values from PubChem BioAssay AID1259308 (NCATS, 2017).

Aim: 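Candidate targets for better recombinant protein yield in mammalian cells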 (primary screen)
System: human HEK293 embryonic kidney cells stably expressing firefly luciferase (HEK-CMV-Luc2-Hygro)
Knock-down reagent: single siRNA against human genes, 0.8 pmol siRNA per well
Time to read-out: 72 h
Detection: 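Reporter luminescence and viable-cell signal on separate replicate plates, given as percent of non-targeting control and median/MAD z-scores, plus per-cell luciferase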
Scale: total luciferase, z-score and total luciferase, % of control: higher = more reporter protein produced; luciferase per cell, z-score: higher = more reporter output per viable cell; viable cells, % of control: higher = more viable cells
Active means: 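An siRNA counts as active if its total luciferase robust z-score exceeds 3; genes with two or more such siRNAs out of three were retested with fresh siRNAs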
Meaning of the calls: active = raised luciferase; inactive = no rise
The whole screen tested about 59,000 reagents; shown is a random part of them. Of all reagents, about 1,510 (2.6%) were called active. 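Calls use total luciferase alone and ignore viability, so some active siRNAs may act by altering cell number.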 Unmarked entries are inactive. The numbers tell different reagents against one gene apart.

| Target gene | reagent | total luciferase, z-score | total luciferase, % of control | luciferase per cell, z-score | viable cells, % of control |
| --- | --- | --- | --- | --- | --- |
| NKAP (NFKB activating protein) | 1 | -0.421 | 73.5 | -0.541 | 94.7 |
| NKAP (NFKB activating protein) | 2 | 1.35 | 109 | 2.57 | 61.9 |
| NKAP (NFKB activating protein) | 3 | -0.44 | 73.1 | -0.887 | 103 |
| POC1B (POC1 centriolar protein B) | 1 | -2.04 | 41.2 | -2.47 | 88.4 |
| POC1B (POC1 centriolar protein B) | 2 | -0.892 | 64.1 | 0.239 | 67.3 |
| POC1B (POC1 centriolar protein B) | 3 | -0.452 | 72.9 | 0.167 | 78 |
| PDE4B (phosphodiesterase 4B) | 1 | 0.502 | 91.9 | 0.938 | 80.2 |
| PDE4B (phosphodiesterase 4B) | 2 | 1.68 | 115 | 2.13 | 73.5 |
| PDE4B (phosphodiesterase 4B) | 3 | -0.647 | 69 | 0.736 | 63.5 |
| ECHDC2 (enoyl-CoA hydratase domain containing 2) | 1 | -0.121 | 79.5 | -0.174 | 93 |
| ECHDC2 (enoyl-CoA hydratase domain containing 2) | 2 | -1.19 | 58.2 | -1.64 | 100 |
| ECHDC2 (enoyl-CoA hydratase domain containing 2) | 3 | 0.0952 | 83.8 | -0.46 | 106 |
| SEZ6L (seizure related 6 homolog like) | 1 | 0.739 | 96.6 | 0.815 | 87.1 |
| SEZ6L (seizure related 6 homolog like) | 2 | -0.521 | 71.5 | -0.637 | 94.5 |
| SEZ6L (seizure related 6 homolog like) | 3 | -1.78 | 46.5 | -1.52 | 77.4 |
| PRMT2IP (PRMT2 interacting protein) | 1 | 1.6 | 114 | 0.689 | 106 |
| PRMT2IP (PRMT2 interacting protein) | 2 | -1.65 | 49 | -1.17 | 74.5 |
| PRMT2IP (PRMT2 interacting protein) | 3 | 1.51 | 112 | 2.21 | 70 |
| SMARCAL1 (SNF2 related chromatin remodeling annealing helicase 1) | 1 | -1.25 | 57.1 | -1 | 83 |
| SMARCAL1 (SNF2 related chromatin remodeling annealing helicase 1) | 2 | 1.3 | 108 | 1.35 | 84.3 |
| SMARCAL1 (SNF2 related chromatin remodeling annealing helicase 1) | 3 | -0.669 | 68.6 | -0.0688 | 78 |
| NT5C1B (5'-nucleotidase, cytosolic IB) | 1 | -0.44 | 73.1 | -0.367 | 90 |
| NT5C1B (5'-nucleotidase, cytosolic IB) | 2 | -0.209 | 77.7 | 0.849 | 69.4 |
| NT5C1B (5'-nucleotidase, cytosolic IB) | 3 | -1.63 | 49.5 | -1.13 | 74.5 |
| PHF14 (PHD finger protein 14) | 1 | -1.13 | 59.4 | -1.55 | 99.9 |
| PHF14 (PHD finger protein 14) | 2 | 0.592 | 93.7 | -0.19 | 110 |
| PHF14 (PHD finger protein 14) | 3 | -0.48 | 72.3 | 0.119 | 78.3 |
| IQCF6 (IQ motif containing F6) | 1 | 0.464 | 91.1 | 1.13 | 75.6 |
| IQCF6 (IQ motif containing F6) | 2 | 0.624 | 94.3 | 1.47 | 71.6 |
| IQCF6 (IQ motif containing F6) | 3 | -0.0401 | 81.1 | -0.543 | 105 |
| NOP9 (NOP9 nucleolar protein) | 1 | -0.353 | 74.9 | -0.361 | 92 |
| NOP9 (NOP9 nucleolar protein) | 2 | 0.112 | 84.1 | 0.691 | 78.4 |
| NOP9 (NOP9 nucleolar protein) | 3 | -0.299 | 75.9 | -0.684 | 102 |
| HBM (hemoglobin subunit mu) | 1 | -0.321 | 75.5 | -0.206 | 89.1 |
| HBM (hemoglobin subunit mu) | 2 | -0.649 | 69 | -0.564 | 89.4 |
| HBM (hemoglobin subunit mu) | 3 | 0.179 | 85.4 | 1.4 | 66 |
| ZNF124 (zinc finger protein 124) | 1 | -0.278 | 76.4 | -0.249 | 91.1 |
| ZNF124 (zinc finger protein 124) | 2 | 2.35 | 129 | 1.52 | 96.3 |
| ZNF124 (zinc finger protein 124) | 3 | 1.76 | 117 | 0.725 | 108 |
| LAPTM4B (lysosomal protein transmembrane 4 beta) | 1 | -0.516 | 71.6 | -0.769 | 98 |
| LAPTM4B (lysosomal protein transmembrane 4 beta) | 2 | 0.449 | 90.8 | 0.199 | 96.3 |
| LAPTM4B (lysosomal protein transmembrane 4 beta) | 3 | 2.51 | 132 | 1.76 | 92.7 |
| ZFAND5 (zinc finger AN1-type containing 5) | 1 | -0.347 | 75 | -0.799 | 103 |
| ZFAND5 (zinc finger AN1-type containing 5) | 2 | 1.28 | 107 | 1.38 | 83.4 |
| ZFAND5 (zinc finger AN1-type containing 5) | 3 | -1.89 | 44.3 | -1.26 | 69.1 |
| PALD1 (phosphatase domain containing paladin 1) | 1 | -0.178 | 78.3 | -0.254 | 93.6 |
| PALD1 (phosphatase domain containing paladin 1) | 2 | 0.724 | 96.3 | 0.345 | 98.3 |
| PALD1 (phosphatase domain containing paladin 1) | 3 | 0.841 | 98.6 | 1.81 | 68.5 |
| EPHB2 (EPH receptor B2) | 1 | 0.19 | 85.7 | 1.59 | 63 |
| EPHB2 (EPH receptor B2) | 2 | 0.0628 | 83.1 | 0.0596 | 91.5 |
| EPHB2 (EPH receptor B2) | 3 | -2.73 | 27.6 | -1.67 | 48 |
| PAWR (pro-apoptotic WT1 regulator) | 1 | 1.91 | 120 | 1.76 | 84.3 |
| PAWR (pro-apoptotic WT1 regulator) | 2 | 0.75 | 96.8 | 0.618 | 91.9 |
| PAWR (pro-apoptotic WT1 regulator) | 3 | -0.412 | 73.7 | -0.0209 | 82.8 |
| UQCC2 (ubiquinol-cytochrome c reductase complex assembly factor 2) | 1 | 0.617 | 94.2 | 1.18 | 77.2 |
| UQCC2 (ubiquinol-cytochrome c reductase complex assembly factor 2) | 2 | 1.54 | 112 | 1.67 | 81 |
| UQCC2 (ubiquinol-cytochrome c reductase complex assembly factor 2) | 3 | -0.268 | 76.5 | -0.0865 | 87.5 |

Targets listed so far whose gene name begins with E or e (6):
| Target gene | reagent | total luciferase, z-score | total luciferase, % of control | luciferase per cell, z-score | viable cells, % of control |
| --- | --- | --- | --- | --- | --- |
| ECHDC2 (enoyl-CoA hydratase domain containing 2) | 1 | -0.121 | 79.5 | -0.174 | 93 |
| ECHDC2 (enoyl-CoA hydratase domain containing 2) | 2 | -1.19 | 58.2 | -1.64 | 100 |
| ECHDC2 (enoyl-CoA hydratase domain containing 2) | 3 | 0.0952 | 83.8 | -0.46 | 106 |
| EPHB2 (EPH receptor B2) | 1 | 0.19 | 85.7 | 1.59 | 63 |
| EPHB2 (EPH receptor B2) | 2 | 0.0628 | 83.1 | 0.0596 | 91.5 |
| EPHB2 (EPH receptor B2) | 3 | -2.73 | 27.6 | -1.67 | 48 |
